Source: publication PMC3975354
Results are given in words; binding and its absence hold for the method and conditions named. Binding seen in cells or lysates may run through a third protein. Some results given as binding are weak or reduced against the parent protein; the word gives no strength.

Columns and labels:
[1] = target: T1, human VCAM-1 over-expressed in NMuMG cells (pBabe-puro-VCAM-1) (human) (UniProt P19320); assay: co-IP; NMuMG cells (eGFP control and VCAM-1 over-expressing) lysed in 1x RIPA buffer; IP with anti-VCAM-1 antibody or normal IgG and protein A/G-agarose, overnight at 4 °C, five washes; Western blot
T1 sequence: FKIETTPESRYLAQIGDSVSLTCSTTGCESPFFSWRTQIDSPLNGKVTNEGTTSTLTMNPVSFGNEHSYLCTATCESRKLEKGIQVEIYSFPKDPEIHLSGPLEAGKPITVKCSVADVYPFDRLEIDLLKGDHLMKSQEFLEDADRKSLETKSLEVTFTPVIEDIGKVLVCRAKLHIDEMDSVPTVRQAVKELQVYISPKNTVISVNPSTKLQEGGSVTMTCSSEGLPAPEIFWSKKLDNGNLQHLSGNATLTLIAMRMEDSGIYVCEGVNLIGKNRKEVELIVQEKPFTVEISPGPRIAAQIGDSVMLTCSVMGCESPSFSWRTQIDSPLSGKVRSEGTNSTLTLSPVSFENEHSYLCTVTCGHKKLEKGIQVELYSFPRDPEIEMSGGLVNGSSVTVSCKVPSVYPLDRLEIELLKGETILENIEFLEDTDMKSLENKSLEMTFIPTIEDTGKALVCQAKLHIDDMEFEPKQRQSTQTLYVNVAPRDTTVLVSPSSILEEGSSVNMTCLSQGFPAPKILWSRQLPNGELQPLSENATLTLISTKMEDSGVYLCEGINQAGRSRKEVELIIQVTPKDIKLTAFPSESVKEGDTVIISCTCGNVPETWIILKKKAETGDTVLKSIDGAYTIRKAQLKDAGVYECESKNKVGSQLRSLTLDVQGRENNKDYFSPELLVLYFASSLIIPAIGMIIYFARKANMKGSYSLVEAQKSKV

[2] = target: T2, VCAM-1 (vascular cell adhesion molecule-1), endogenous in NMuMG cells (mouse (endogenous in NMuMG)) (UniProt P29533); assay: as above
T2 sequence: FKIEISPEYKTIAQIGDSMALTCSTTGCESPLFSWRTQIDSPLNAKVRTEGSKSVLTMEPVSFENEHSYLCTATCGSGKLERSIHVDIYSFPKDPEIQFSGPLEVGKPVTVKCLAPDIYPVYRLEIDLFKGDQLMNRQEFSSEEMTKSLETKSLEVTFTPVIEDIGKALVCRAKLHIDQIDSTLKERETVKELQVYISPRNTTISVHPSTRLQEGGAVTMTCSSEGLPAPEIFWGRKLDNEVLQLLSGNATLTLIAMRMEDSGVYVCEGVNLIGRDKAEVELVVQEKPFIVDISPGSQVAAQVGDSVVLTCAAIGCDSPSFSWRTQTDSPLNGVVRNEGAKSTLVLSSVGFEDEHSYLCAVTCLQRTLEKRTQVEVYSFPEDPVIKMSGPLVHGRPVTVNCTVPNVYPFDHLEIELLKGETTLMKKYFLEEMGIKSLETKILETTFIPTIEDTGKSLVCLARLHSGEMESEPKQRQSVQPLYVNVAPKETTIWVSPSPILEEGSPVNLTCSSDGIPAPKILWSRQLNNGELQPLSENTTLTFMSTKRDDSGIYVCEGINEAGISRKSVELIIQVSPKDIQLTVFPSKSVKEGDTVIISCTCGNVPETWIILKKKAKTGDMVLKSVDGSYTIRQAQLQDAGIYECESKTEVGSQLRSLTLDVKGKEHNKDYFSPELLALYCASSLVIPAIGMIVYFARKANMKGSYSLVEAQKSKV

- binding [1]: binds
- binding [2]: binds
B1: CD44, endogenous in NMuMG cells (protein, UniProt P15379 23-778)
chain: QIDLNVTCRYAGVFHVEKNGRYSISRTEAADLCQAFNSTLPTMDQMKLALSKGFETCRYGFIEGNVVIPRIHPNAICAANHTGVYILVTSNTSHYDTYCFNASAPPEEDCTSVTDLPNSFDGPVTITIVNRDGTRYSKKGEYRTHQEDIDASNIIDDDVSSGSTIEKSTPEGYILHTYLPTEQPTGDQDDSFFIRSTLATIASTVHSKSHAAAQKQNNWIWSWFGNSQSTTQTQEPTTSATTALMTTPETPPKRQEAQNWFSWLFQPSESKSHLHTTTKMPGTESNTNPTGWEPNEENEDETDTYPSFSGSGIDDDEDFISSTIATTPRVSARTEDNQDWTQWKPNHSNPEVLLQTTTRMADIDRISTSAHGENWTPEPQPPFNNHEYQDEEETPHATSTTPNSTAEAAATQQETWFQNGWQGKNPPTPSEDSHVTEGTTASAHNNHPSQRITTQSQEDVSWTDFFDPISHPMGQGHQTESKDTDSSHSTTLQPTAAPNTHLVEDLNRTGPLSVTTPQSHSQNFSTLHGEPEEDENYPTTSILPSSTKSSAKDARRGGSLPTDTTTSVEGYTFQYPDTMENGTLFPVTPAKTEVFGETEVTLATDSNVNVDGSLPGDRDSSKDSRGSSRTVTHGSELAGHSSANQDSGVTTTSGPMRRPQIPEWLIILASLLALALILAVCIAVNSRRRCGQKKKLVINGGNGTVEDRKPSELNGEASKSQEMVHLVNKEPSETPDQCMTADETRNLQSVDMKIGV
